Results published in patent US6800750.
At least one result comes from cells or an extract, where the contact may be indirect. For part of these data: A negative result means that nothing was seen under these conditions. For part of these data: Tags and fusion partners may be left off the protein sequences shown.

By UniProt entry, the sequences of proteins in these tests, tags left out. Residues count along the entry.
UniProt P08047, 2-785: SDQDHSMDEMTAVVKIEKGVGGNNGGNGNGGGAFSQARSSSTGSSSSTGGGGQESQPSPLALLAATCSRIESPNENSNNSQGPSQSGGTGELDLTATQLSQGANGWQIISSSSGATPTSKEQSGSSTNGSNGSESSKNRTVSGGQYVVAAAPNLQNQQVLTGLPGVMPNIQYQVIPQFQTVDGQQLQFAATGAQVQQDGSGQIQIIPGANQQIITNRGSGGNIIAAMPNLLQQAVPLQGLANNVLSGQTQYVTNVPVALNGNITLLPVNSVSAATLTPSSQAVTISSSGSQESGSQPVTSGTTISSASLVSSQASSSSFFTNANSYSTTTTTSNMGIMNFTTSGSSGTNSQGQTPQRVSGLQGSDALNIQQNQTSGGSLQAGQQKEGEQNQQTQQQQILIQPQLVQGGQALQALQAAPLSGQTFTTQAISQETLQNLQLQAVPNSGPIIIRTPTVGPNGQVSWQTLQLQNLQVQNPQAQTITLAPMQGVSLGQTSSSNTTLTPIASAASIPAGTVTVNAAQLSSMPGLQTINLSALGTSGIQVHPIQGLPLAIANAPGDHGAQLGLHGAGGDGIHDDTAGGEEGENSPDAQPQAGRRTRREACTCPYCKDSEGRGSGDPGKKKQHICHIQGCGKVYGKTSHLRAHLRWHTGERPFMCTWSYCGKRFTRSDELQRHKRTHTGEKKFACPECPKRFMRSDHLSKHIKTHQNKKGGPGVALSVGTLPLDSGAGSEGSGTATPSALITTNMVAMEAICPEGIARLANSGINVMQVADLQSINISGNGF

Experiments:
Sp1 [1] = target: Sp1 (UniProt P08047); test: EMSA; details: Complex II, supershifted by anti-Sp1 and decreased by blocking antibody 1C6; protein in an extract; protein details: endogenous, nuclear extract
SRF [2] = target: T1, SRF (UniProt P11831); test: EMSA; details: Complex I, supershifted by anti-SRF; complex with Elk-1; protein in an extract; protein details: endogenous, nuclear extract
T1 sequence (looked up, limits assumed): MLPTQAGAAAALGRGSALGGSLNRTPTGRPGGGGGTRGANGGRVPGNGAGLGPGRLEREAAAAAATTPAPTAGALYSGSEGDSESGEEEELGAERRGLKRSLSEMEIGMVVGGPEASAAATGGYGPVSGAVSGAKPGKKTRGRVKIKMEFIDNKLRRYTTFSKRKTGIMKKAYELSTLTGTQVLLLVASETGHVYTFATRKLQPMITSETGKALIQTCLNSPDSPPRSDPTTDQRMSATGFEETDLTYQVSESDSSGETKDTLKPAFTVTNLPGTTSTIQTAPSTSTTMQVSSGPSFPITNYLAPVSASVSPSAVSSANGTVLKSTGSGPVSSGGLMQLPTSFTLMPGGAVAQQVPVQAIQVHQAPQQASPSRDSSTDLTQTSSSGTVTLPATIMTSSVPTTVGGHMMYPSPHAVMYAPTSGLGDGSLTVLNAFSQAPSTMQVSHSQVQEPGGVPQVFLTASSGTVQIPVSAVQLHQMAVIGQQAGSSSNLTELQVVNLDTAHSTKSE

Sp1 [3] = target: Sp1 (UniProt P08047); test: competition with a labelled probe; details: protein in an extract, protein details: endogenous, nuclear extract
SRF [4] = target: T1, SRF; test: competition with a labelled probe; details: protein in an extract, protein details: endogenous, nuclear extract
Elk-1 = target: T2, Elk-1 (UniProt P19419); test: competition with a labelled probe; details: protein in an extract, protein details: endogenous, nuclear extract
T2 sequence (looked up, limits assumed): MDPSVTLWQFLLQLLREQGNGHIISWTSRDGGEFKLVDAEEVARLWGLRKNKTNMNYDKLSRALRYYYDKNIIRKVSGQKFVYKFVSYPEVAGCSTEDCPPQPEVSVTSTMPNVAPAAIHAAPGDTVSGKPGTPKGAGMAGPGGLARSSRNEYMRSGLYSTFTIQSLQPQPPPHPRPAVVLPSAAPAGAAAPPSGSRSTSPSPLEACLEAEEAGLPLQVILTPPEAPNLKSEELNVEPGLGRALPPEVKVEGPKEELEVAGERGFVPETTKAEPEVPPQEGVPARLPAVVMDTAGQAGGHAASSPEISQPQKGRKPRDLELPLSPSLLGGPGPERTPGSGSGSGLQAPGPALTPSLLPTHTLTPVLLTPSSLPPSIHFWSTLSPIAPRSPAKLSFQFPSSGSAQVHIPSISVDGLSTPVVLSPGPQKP

[5] = unlabeled triple-site mutant did not inhibit Complex I, variant of WT Mcl-1 oligonucleotide (-135 to -92)
[6] = competitor did not inhibit Complex I

“CAACCCTCCGGAAGCTGCCGCCCCTTTCCCCTTTTATGGGAATA (double strand) [WT Mcl-1 oligonucleotide (-135 to -92)]”: binds (Sp1 [1]); binds (SRF [2]).

“CTTACACAGGATGTCCATATTAGGACATCT (double strand) [c-Fos SRE oligonucleotide]”: no binding (Sp1 [3]; competitor did not inhibit Complex II); binds (SRF [4]; unlabeled competitor inhibited Complex I (SRF/Elk-1)).

“CAACCCTCCTTAAGCTGCTGACCCTTTCCCCTTCGGCTGGAATA (double strand) [delta Mcl-1 oligonucleotide]”: no binding (Sp1 [3]; unlabeled triple-site mutant did not inhibit Complex II, variant of WT Mcl-1 oligonucleotide (-135 to -92)); no binding (SRF [4]; [5]); no binding (Elk-1; [5]).

“ATTCGATCGGGGCGGGGCGAGC (double strand) [Sp1 consensus oligonucleotide]”: no binding (SRF [4]; [6]); no binding (Elk-1; [6]).
